Results are given in words; binding and its absence hold for the method and conditions named. Binding seen in cells or lysates may run through a third protein. Some results given as binding are weak or reduced against the parent protein; the word gives no strength.
Target: death receptor DR5, tumor necrosis factor receptor superfamily member 10b (TNFRSF10B) (human (endogenous in DAOY)), O14763
Experiment: co-IP; DAOY cells pre-treated with HGF for 72 h, then TRAIL for 2 h; 500 ug total protein in lysis buffer (100 mM Tris-HCl, 5 uM EDTA, 1% NP-40) with 5 ug anti-DR5 antibody at 4°C, protein A/G beads overnight, 5 washes; Western blot for caspase 8, FLIP, FADD, c-Met and DR5
Settings: remark: other sources report otherwise

B1: caspase 8, Q14790 1-479 (enzyme)
chain: MDFSRNLYDIGEQLDSEDLASLKFLSLDYIPQRKQEPIKDALMLFQRLQEKRMLEESNLSFLKELLFRINRLDLLITYLNTRKEEMERELQTPGRAQISAYRVMLYQISEEVSRSELRSFKFLLQEEISKCKLDDDMNLLDIFIEMEKRVILGEGKLDILKRVCAQINKSLLKIINDYEEFSKERSSSLEGSPDEFSNGEELCGVMTISDSPREQDSESQTLDKVYQMKSKPRGYCLIINNHNFAKAREKVPKLHSIRDRNGTHLDAGALTTTFEELHFEIKPHDDCTVEQIYEILKIYQLMDHSNMDCFICCILSHGDKGIIYGTDGQEAPIYELTSQFTGLKCPSLAGKPKVFFIQACQGDNYQKGIPVETDSEEQPYLEMDLSSPQTRYIPDEADFLLGMATVNNCVSYRNPAEGTWYIQSLCQSLRERCPRGDDILTILTEVNYEVSNKDDKKNMGKQMPQPTFTLRKKLVFPSD
  binding: binds

From article PMC2590617
